PubChem BioAssay AID504444 (National Center for Advancing Translational Sciences (NCATS), 2011)
Screen size: about 360,000 compounds; about 7,500 (2.1%) were called active. The shares of active, inactive and inconclusive entries below differ from those in the screen. Calls come from the whole dose curve; as a rule, active = well fitted inhibition curve with a large enough effect; inconclusive = small, poorly fitted or top-dose-only effect, or effect the other way; inactive = flat fitted curve, though single readings scatter. A potency beside an inconclusive call is a rough fit, not a confirmed value.

Test: Nrf2 qHTS screen for inhibitors; note: nearly all actives have a fitted effect of over 60% in size
Conditions: A549 ARE-Fluc reporter, luciferase luminescence, 18-24 h; activity change, negative = inhibition: at 46 µM (top of the series)
Method in brief: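 A549 ARE_Fluc cells, 5000/well, 5% FBS OPTI-MEM; compounds in dose-response, 18-24 h at 37 °C/5% CO2; CellTiter-Fluor viability read (Ex 405/Em 525), then BugLite luciferase luminescence = Nrf2 activity.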
% is set by controls: 0 for no effect and ±100 for the full control effect; potency is the fitted concentration of half-maximal effect.

| Structure (SMILES) | activity change, negative = inhibition | Potency |
| --- | --- | --- |
| CC(=O)N1CCc2cc(Br)cc(S(=O)(=O)CCC(=O)N3CCN(c4ccccc4)CC3)c21 | inactive: -4.48% [at 9.27 µM] |  |
| Cc1csc2c(=O)n(CCO)c(=O)[nH]c12 |  | inconclusive: 2.06 µM [falling, partial curve, poor fit] |
| O=C(c1ccc(-c2cccc([N+](=O)[O-])c2)o1)N1CCN(c2ccc([N+](=O)[O-])cc2)CC1 |  | inconclusive: 25.9 µM [falling, partial curve] |
| O=C(C1CCN(S(=O)(=O)c2ccc(Cl)cc2)CC1)N1CCN(c2ccccn2)CC1 |  | inconclusive: 16.4 µM [falling, partial curve] |
| O=C(N/N=C/c1cccc(Oc2ccc([N+](=O)[O-])cc2[N+](=O)[O-])c1)c1cncc(Br)c1 |  | active: 13 µM |
| COC(=O)c1ccc(/C=C2/SC(=S)N(CCC(=O)NCCCN3CCOCC3)C2=O)cc1 |  | inconclusive: 29.1 µM [activator, single point] |
| COc1ccccc1Oc1ccc(S(=O)(=O)N2CCCCC2C)cc1 (stereo not drawn) |  | inconclusive: 32.6 µM [falling, single point] |
| O=C(CCN1C(=O)/C(=C/c2ccccc2Cl)SC1=S)NCCCN1CCOCC1 |  | inconclusive: 23.1 µM [activator, single point] |
| COC(=O)c1ccccc1NS(=O)(=O)c1cn(C)c(=O)n(C)c1=O |  | inconclusive: 6.51 µM [falling, partial curve, poor fit] |
| Cc1ccc(C(=O)CN(Cc2ccccc2)C2=NCCS2)cc1 |  | inactive |
| COc1cc2c3c(n(C)c(=O)c2cc1OC)-c1cc2c(cc1C3=O)OCO2 |  | inconclusive: 1.64 µM [falling, full curve] |
| COC(=O)c1ccccc1NC(=O)c1cc(C)nc2c1c(C)nn2-c1ccc(C)cc1 |  | inconclusive: 29.1 µM [activator, single point] |
| C=CCN1C(=O)C(=O)N(Cc2nc3ccccc3s2)C1=O |  | inconclusive: 18.4 µM [activator, partial curve] |
| C/C(=N\NC(=O)c1ccc(CN2CCOCC2)cc1)c1ccc([N+](=O)[O-])cc1 |  | inconclusive: 20.6 µM [falling, single point] |
| CCCCn1nc(C(=O)N(C)C2CCCCC2)c2ccccc2c1=O |  | inconclusive: 9.2 µM [falling, partial curve, poor fit] |
| COc1cc(OC)c(NC(=O)n2ncc3cc(Cl)ccc32)cc1Cl |  | inconclusive: 7.31 µM [activator, partial curve, poor fit] |
| O=C(Nc1ccc(S(=O)(=O)Nc2ccccc2)cc1)c1ccc(CN2CCOCC2)cc1 |  | active: 4.11 µM |
| COc1ccc([N+](=O)[O-])cc1N(CC(O)CN(CC(C)C)CC(C)C)S(=O)(=O)c1ccccc1 (stereo not drawn) |  | inconclusive: 20.6 µM [falling, partial curve, poor fit] |
| COC(=O)C1=C(C)N(Cc2ccccc2)C(=O)N[C@H]1c1cccc(C(F)(F)F)c1 |  | inconclusive: 14.6 µM [falling, partial curve, poor fit] |
| CCOC(=O)c1cccc(NC(=O)CC2C(=O)N(c3ccc(C)cc3)C(=O)N2Cc2cccc(OC)c2)c1 (stereo not drawn) |  | inconclusive: 20.6 µM [falling, single point] |
| Cn1c(=O)n(C)c2cc(S(=O)(=O)Nc3ccccc3)ccc21 |  | active: 23.1 µM |

| Structure (SMILES) | activity change, negative = inhibition | Potency |
| --- | --- | --- |
| CCn1cc(S(=O)(=O)N2CCN(c3ccc(Cl)cc3)CC2)cn1 |  | active: 11.6 µM |
| Cn1c(=O)c([N+](=O)[O-])c(NCCc2ccccc2)c2ccccc21 |  | inconclusive: 4.61 µM [activator, partial curve, poor fit] |
| COCCNC(=O)[C@@H]1CSC2c3ccccc3C(=O)N21 (stereo partly drawn) |  | inactive |
| CCOc1ccccc1CNC(=O)Cn1ccc2cc(S(=O)(=O)N3CCCCCC3)ccc21 |  | inconclusive: 29.1 µM [falling, single point] |
| Cc1cc(Cl)c2oc(C(=O)NCC(C)(C)N3CCOCC3)c(C)c2c1 |  | inconclusive: 20.6 µM [activator, partial curve, poor fit] |
| CC1Oc2ccccc2C=C1/C=N/Nc1ccc(C(=O)O)cc1 (stereo not drawn) |  | inconclusive: 0.326 µM [activator, full curve] |
| CCN(CC(=O)NC(C)(C)C)C(=O)c1ccc(Br)cc1 |  | inconclusive: 6.51 µM [activator, partial curve] |
| CCCNc1nc(Nc2ccc(C)cc2)nc(N2CCCC2)n1 |  | inconclusive: 29.1 µM [falling, single point] |
| Cc1c(CCC(=O)N[C@@H](C)C(=O)O)c(=O)oc2c(C)c3oc4c(c3cc12)CCCC4 |  | inconclusive: 9.2 µM [falling, partial curve] |
| O=C(c1ccc2c(c1)OCCO2)C1CCN(S(=O)(=O)c2cccc(F)c2)CC1 |  | active: 14.6 µM |
| C=C(C)CSc1nnc(-c2cccc(Cl)c2)n1N |  | inactive |
| Cn1cnc2cc(NC(=O)COc3ccccc3)ccc21 |  | inconclusive: 13 µM [activator, partial curve] |
| COc1ccc(NC(=O)c2cccc(F)c2)cc1Cl |  | inconclusive: 4.61 µM [activator, partial curve, poor fit] |
| c1cnc(SCCOc2cccc3ccccc23)nc1 |  | inconclusive: 10.3 µM [activator, partial curve] |
| CC(=O)Nc1c(Br)cc2c(c1Br)Cc1cc([N+](=O)[O-])ccc1-2 |  | inconclusive: 20.6 µM [falling, single point] |
| Cn1c(NC(=O)c2ccc(F)cc2)nc2ccccc21 |  | inconclusive: 20.6 µM [activator, single point] |
| O=C(CSc1nc2cc(Cl)ccc2s1)c1ccco1 |  | inconclusive: 11.6 µM [activator, partial curve] |
| O=C(Nc1ccccc1F)c1coc(=O)c(Br)c1 |  | inconclusive: 18.4 µM [activator, single point] |
| COC(=O)Cc1cc(=O)[nH]c(Nc2nc3ccccc3o2)n1 |  | inactive |
| COC(=O)c1sc2cccc(F)c2c1S(=O)(=O)Nc1ccc(C)cc1Cl |  | inconclusive: 29.1 µM [activator, single point] |
| COc1cccc(C(=O)Nc2cnn(C(C)C)c2)c1 |  | inconclusive: 3.26 µM [activator, full curve] |

Looked up by structure from the entries so far:

| Structure (SMILES) | activity change, negative = inhibition | Potency |
| --- | --- | --- |
| CCOC(=O)c1cccc(NC(=O)CC2C(=O)N(c3ccc(C)cc3)C(=O)N2Cc2cccc(OC)c2)c1 (stereo not drawn) |  | inconclusive: 20.6 µM [falling, single point] |
| Cn1c(=O)n(C)c2cc(S(=O)(=O)Nc3ccccc3)ccc21 |  | active: 23.1 µM |
| C=CCN1C(=O)C(=O)N(Cc2nc3ccccc3s2)C1=O |  | inconclusive: 18.4 µM [activator, partial curve] |
| COC(=O)c1sc2cccc(F)c2c1S(=O)(=O)Nc1ccc(C)cc1Cl |  | inconclusive: 29.1 µM [activator, single point] |

(cont.)

| Structure (SMILES) | activity change, negative = inhibition | Potency |
| --- | --- | --- |
| Cn1nnc(NC(=S)NC(=O)Cc2ccccc2)n1 |  | inconclusive: 16.4 µM [activator, partial curve, poor fit] |
| O=C(c1ccc(N2CCCCS2(=O)=O)cc1)N1CCN(c2ccccc2F)CC1 |  | inconclusive: 23.1 µM [falling, single point] |
| Cc1c(C)n(CCc2ccccc2)c2ncnc(NCCO)c12 |  | inconclusive: 4.61 µM [activator, partial curve] |
| Cc1cc(Br)ccc1OCCCCNC(C)(C)C |  | inconclusive: 29.1 µM [activator, single point] |
| CC(C)(C)c1ccc(CN(Cc2ccccc2)C(c2ccccn2)c2nnnn2C(C)(C)C)cc1 (stereo not drawn) |  | inconclusive: 17.8 µM [falling, partial curve, poor fit] |
| Cc1c(/C=C(\C#N)C(=O)Nc2cccc(Cl)c2)c2ccccc2n1Cc1ccccc1 |  | active: 8.2 µM |
| CS(=O)(=O)c1nc(S(=O)(=O)c2ccc(Cl)cc2)c(N2CCC(O)CC2)s1 |  | inconclusive: 29.1 µM [activator, single point] |
| CCOCCCNC(=S)N(Cc1ccccc1)Cc1nc2ccccc2c(=O)[nH]1 |  | inconclusive: 9.2 µM [falling, partial curve] |
| Nc1ccc(Sc2cnn(-c3ccccc3)c(=O)c2Cl)cc1 |  | inactive |
| O=S(=O)(Nc1cc(Sc2ncn[nH]2)c(O)c2ccccc12)c1ccccc1 |  | inconclusive: 29.1 µM [falling, single point] |
| COc1ccc(NC(=O)COC(=O)c2cccc(S(=O)(=O)N3CCCCC3)c2)c(OC)c1 |  | inconclusive: 32.6 µM [falling, single point] |
| CC(=O)C(=Cc1ccc(C(=O)O)cc1)C(C)=O |  | inactive |
| COc1ccc(C(=O)CSc2nnc(CNc3ccc(C)cc3C)n2Cc2ccco2)cc1 |  | inconclusive: 18.4 µM [falling, partial curve, poor fit] |
| O=S(=O)(c1ccsc1)N1CC=C(c2ccccc2)CC1 |  | inconclusive: 0.92 µM [activator, partial curve] |
| Cc1ccc(C)c(N2CCN(C(=O)c3ccc4nc(-c5ccco5)c(-c5ccco5)nc4c3)CC2)c1 |  | inconclusive: 16.4 µM [falling, partial curve, poor fit] |
| O=S(=O)(NCC1CCCO1)c1ccc(S(=O)(=O)N(Cc2ccc(F)cc2)C2CCCCC2)cc1 (stereo not drawn) |  | inconclusive: 3.26 µM [activator, single point] |
| COc1ccc(SCC(CC(C)C)N2CCN(CCc3ccccc3)CCC2=O)cc1 (stereo not drawn) |  | inactive |
| COc1ccc(-c2noc(-c3ccc(C)cc3Cl)n2)cc1OC |  | inconclusive: 10.3 µM [activator, partial curve, poor fit] |
| CCOc1ccc(NC(=O)c2sc3ccccc3c2Cl)cc1 |  | inconclusive: 3.66 µM [activator, full curve] |
| Cc1ccc(Cn2nnnc2CN2CCC(c3nc4ccc(Cl)cc4[nH]3)CC2)cc1 |  | inconclusive: 0.651 µM [falling, full curve] |
| C=CC[C@@H](CC(=O)N[C@H](CO)Cc1ccccc1)C(=O)N[C@H](COC(=O)[C@@H](CC=C)Cc1ccc(F)cc1)Cc1c[nH]c2ccccc12 |  | inconclusive: 29.1 µM [falling, single point] |
